Screen size: about 400,000 compounds; about 13,000 (3.2%) were called active. Inconclusive results, whose numbers are uncertain, are shown with a selection of clear calls. The call rests on the fitted dose curve; in most records, active means well fitted cell-killing curve with a large enough effect; inconclusive means small, poorly fitted or top-dose-only effect, or effect the other way; inactive means flat fitted curve, though single readings scatter. Where the call is inconclusive, the potency comes from a doubtful curve fit.
Experiment: qHTS assay for MDR1-selective chemotherapeutics: Primary screen using the drug-selected MDR subline cells KB-V1; further: nearly all actives have a fitted effect of over 60% in size
Conditions: KB-V1 MDR cells viability, CellTiter-Glo, 72 h; activity change, negative = cytotoxicity: at 46.1 µM (top of the series)
Outline: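 KB-V1 MDR subline cells in DMEM (phenol-red free, 10% FBS) exposed to compounds in qHTS concentration series for 72 h at 37 degrees C. Viability read by CellTiter-Glo luminescence; concentration-effect curves fitted after normalization and correction.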
On the % scale 0 is the no-effect control and ±100 the full control effect; potency means the concentration at half of the fitted maximal effect.

Compound	Potency	activity change, negative = cytotoxicity
COc1ccc(C(C)(C)NC(=O)C2CCC(=O)N(CCCN3CCCC3=O)C2)cc1 (stereo not given)	inactive	–
CSc1ccc(Cl)c(C(=O)N(C)CC(=O)Nc2ccc(N3CCOCC3)cc2)c1	inconclusive: 29.1 µM [cytotoxic, single point]	–
COc1ccc(C)cc1S(=O)(=O)N(CC(=O)N1CCOCC1)Cc1ccccc1	inconclusive: 7.31 µM [cytotoxic, partial curve]	–
Cn1cc(C(=O)NCCN2CCN(c3cccc(Cl)c3)CC2)c2c3ccccc3n(C)c2c1=O	inactive	–
CCN1CCN(C(=O)c2ccc3c(=O)n(Cc4ccccc4OC)c(=S)[nH]c3c2)CC1	inactive	–
COc1ccc(C(=O)c2cn[nH]c2-c2ccc(C)cc2O)cc1	inconclusive: 16.4 µM [cytotoxic, single point]	–
COC(=O)c1ccc2nc(-c3ccc(C)cc3)c(Cc3cccc(Cl)c3)n2c1	inconclusive: 14.6 µM [cytotoxic, single point]	–
C[C@H]1CCC[C@@]2(O[C@@H](CCO)C[C@@H](O)[C@@H]2O)O1	inactive	–
CCC1CN(C(=O)N2CCC(C(=O)NCCc3ccccc3OC)CC2)c2ccccc2O1 (stereo not given)	inconclusive: 5.17 µM [cytotoxic, full curve, poor fit]	–
COc1ccc(CCNC(=O)CCSCc2ccccc2Cl)cc1OC	inconclusive: 23.1 µM [rising, single point]	–
O=C(Nc1cc(Cl)cc(Cl)c1)c1ccc(F)c(S(=O)(=O)NC2CCCCC2)c1	inconclusive: 20.6 µM [cytotoxic, partial curve]	–
COc1ccccc1Cc1c(-c2ccc(C)cc2)nc2cc(C)c(Br)c(C)n12	inconclusive: 14.6 µM [cytotoxic, partial curve]	–
CC(=O)NCCN1C(=O)C2C3c4ccccc4C(c4ccccc43)C2C1=O (stereo not given)	inconclusive: 20.6 µM [cytotoxic, single point]	–
CCCCc1ccc(NC(=O)CSc2nc3ccccc3nc2N2CCOCC2)cc1	inactive	–
OC(COCC1COc2ccccc2O1)CN1CCN(c2ccccc2)CC1 (stereo not given)	inconclusive: 4.11 µM [cytotoxic, full curve]	–
CCCCn1c(N)c(N(CCOC)C(=O)c2cc(Cl)nc3ccccc23)c(=O)[nH]c1=O	inactive	–
CSC1=NCCN1C(=O)COc1ccc2ccccc2c1	inconclusive: 5.8 µM [cytotoxic, full curve]	–
COC(=O)c1cc(=O)n(Cc2ccco2)c(=Nc2ccc(F)cc2)s1	active: 23.1 µM	–
CC(C)C(NC(=O)Nc1ccccc1)C(=O)Nc1cccc(S(=O)(=O)N(C)C)c1 (stereo not given)	–	inconclusive: -4.22%
O=C(NCc1nnc(SCC(=O)N2CCC(Cc3ccccc3)CC2)o1)c1ccco1	inconclusive: 18.4 µM [cytotoxic, single point]	–
Cc1ccc(C(=O)Nc2ccc3cn[nH]c3c2)cc1S(=O)(=O)N1CCCCC1	inconclusive: 20.6 µM [cytotoxic, single point]	–
CN(C)/C=C/C(=O)c1cccc(Oc2ncccn2)c1	inconclusive: 0.0082 µM [cytotoxic, full curve, poor fit]	–
CCn1c(=O)c(C(=O)NCc2cccnc2)c(O)c2ccccc21	inconclusive: 23.1 µM [cytotoxic, single point]	–
O=C(COC(=O)/C=C/C(=O)OCC(=O)Nc1ccccc1F)Nc1ccccc1F	inactive	–

Compound	Potency	activity change, negative = cytotoxicity
COc1ccc(S(=O)(=O)N2CCC(C(=O)Nc3ccc4c(c3)OCCO4)CC2)cc1OC	active: 18.4 µM	–
CCCSc1nnc(NC(=O)Nc2ccc(C)cc2)s1	inactive	–
CCn1c(CNc2ccc(OC)cc2)nnc1SCC(=O)Nc1ccc(F)cc1	active: 20.6 µM	–
COc1ccc(CCNC(=O)c2ccc3c(Cl)c4c(nc3c2)CCCC4)c(OC)c1	inactive	–
O=c1[nH]c(CCC2CCCC2)nc2ccccc12	active: 16.4 µM	–
Cc1ccc(Cl)cc1NC1=NC(=S)N(C(C)C)C12CCCCC2	inconclusive: 20.6 µM [cytotoxic, partial curve]	–
CC(=O)c1ccc(N2CCN(c3ncnc4onc(C)c34)CC2)cc1	inconclusive: 29.1 µM [cytotoxic, single point]	–
O=C(NC1CC1)C1CCCN1C(=O)NC1CCCCC1 (stereo not given)	inconclusive: 29.1 µM [rising, single point]	–
O=C(CNc1cccc(C(F)(F)F)c1)N/N=C/c1cccc(Br)c1	inactive	–
COc1ccc(NC(=O)CCNS(=O)(=O)c2ccccc2F)cc1S(=O)(=O)N1CCOCC1	inconclusive: 6.51 µM [rising, partial curve]	–
COc1ccc(N(CC(=O)NCc2ccco2)S(=O)(=O)c2ccccc2)cc1	inconclusive: 10.3 µM [cytotoxic, partial curve, poor fit]	–
Cc1cccc(COC[C@H](Cc2ccccc2)N2CCN(C(=O)c3ccc(C(F)(F)F)cc3)CCC2=O)c1	inconclusive: 20.6 µM [cytotoxic, single point]	–
C=C(C(=O)O)c1ccc2ccccc2c1	inactive	–
COC(=O)c1ccc(CSc2nc3c(c(=O)[nH]2)CCC3)cc1	inactive	–
O=C(NCCN1CCCCC1)c1ccc(Cn2c(SCc3cccc(F)c3)nc3cccnc32)cc1	inconclusive: 6.51 µM [rising, partial curve, poor fit]	–
Cn1c(Cl)c(/C=N/OC(=O)c2cccc(Cl)c2)c2ccccc21	inactive	–
CC(=O)Nc1ccc(C(=O)Cn2nnc3ccccc3c2=O)cc1	inconclusive: 11.6 µM [cytotoxic, partial curve]	–
Cc1cccc(-c2n[nH]c(=S)n2/N=C/c2ccc(C)s2)c1	inactive	–
CC(C)Cn1c2c(c(=O)[nH]c1=O)C(C(F)(F)F)(C(F)(F)F)N=C(CCC1CCCCC1)N2	inconclusive: 18.4 µM [cytotoxic, single point]	–
CC(C)NC(=O)c1onc(CSc2ccc(Cl)cc2)c1C(=O)O	inconclusive: 11.6 µM [rising, partial curve]	–
CCc1ccc(OCC(=O)Nc2ccc(-c3nc4ncccc4o3)cc2)cc1	inactive	–
Cc1ccc2c(c1C)NC(=O)CC2c1ccc(Cl)cc1Cl (stereo not given)	inconclusive: 29.1 µM [cytotoxic, single point]	–
CCN(CC)S(=O)(=O)c1ccc(C(=O)NCC(c2cccs2)N2CCOCC2)cc1 (stereo not given)	inconclusive: 18.4 µM [cytotoxic, partial curve]	–
O=C(c1ccco1)N1CCN(C(=O)C2CC(c3ccc(Cl)c(Cl)c3)=NO2)CC1 (stereo not given)	inconclusive: 20.6 µM [cytotoxic, single point]	–

Compound	Potency	activity change, negative = cytotoxicity
Cc1ccc(NC(=O)CCNS(=O)(=O)c2cc(Br)cnc2N)cc1Cl	active: 13 µM	–
CCN(CC)S(=O)(=O)c1ccc(N2CCc3cc(OC)c(OC)cc3C2)nc1	inactive	–
Cc1nc(Nc2ccc(S(=O)(=O)N3CCCCC3C)cc2)c2nnn(Cc3ccccc3)c2n1 (stereo not given)	active: 2.31 µM	–
CCOC(=O)C1=C(C)N(CC(C)C)C(=O)/C1=C\c1ccc(OCC(=O)Nc2ccccc2)cc1	inconclusive: 20.6 µM [cytotoxic, partial curve, poor fit]	–
O=C(CCCCn1c(=O)c2ccccc2n(CC(=O)Nc2ccc(F)cc2)c1=O)NCc1ccco1	inconclusive: 29.1 µM [cytotoxic, single point]	–
Cc1c(-c2nc(N)nc(Nc3ccccc3F)n2)oc2ccccc12	active: 16.4 µM	–
CCCn1c(SCC(=O)Nc2ccc(Cl)cn2)nnc1C1CC1	inactive	–
O=C(CN1CCCc2ccccc21)NC(=O)NCc1ccco1	inconclusive: 20.6 µM [cytotoxic, partial curve]	–
COc1ccc(-c2nnc(SCC(=O)N3CCCc4ccccc43)o2)cc1OC	inconclusive: 29.1 µM [cytotoxic, partial curve, poor fit]	–
COc1ccc(NC(=O)c2ccc(Cl)c(S(=O)(=O)N3CC(C)OC(C)C3)c2)cn1 (stereo not given)	inactive	–
O=C(CC1N=C2c3ccccc3N=C(SCc3cccc(F)c3)N2C1=O)NCc1ccc2c(c1)OCO2 (stereo not given)	inconclusive: 2.06 µM [rising, full curve, poor fit]	–
c1csc(-c2nn3cnnc3c3ccccc23)c1	inconclusive: 18.4 µM [cytotoxic, single point]	–
O=C(Nc1ccc(Cc2ccncc2)cc1)C1CCC(N2C(=O)C3C4C=CC(C5CC45)C3C2=O)CC1 (stereo not given)	active: 11.6 µM	–
O=[N+]([O-])c1cc([N+](=O)[O-])c2cccnc2c1Oc1ccccc1O	inconclusive: 20.6 µM [cytotoxic, single point]	–
CCOC(=O)C(NC(=O)CC)(Nc1sc(C)c(CC)c1C#N)C(F)(F)F (stereo not given)	inconclusive: 11.6 µM [cytotoxic, partial curve]	–
COc1cc(OCc2ccccc2)c(C(=O)/C=C/c2ccc3c(c2)OCO3)c(OC)c1OC	inconclusive: 18.4 µM [cytotoxic, single point]	–
CCOC(=O)c1c(NC(=O)C(=O)N/N=C/c2ccc(OCC)cc2)sc2c1CCCCC2	active: 16.4 µM	–
Clc1cccc2c3c([nH]c12)CCNC3	inactive	–
OC(CN1C=CCc2ccccc21)c1ccc(Cl)cc1Cl (stereo not given)	inconclusive: 2.31 µM [rising, partial curve, poor fit]	–
C/C(=N\NC(=O)CSCc1ccccc1Br)c1cccc([N+](=O)[O-])c1	inconclusive: 5.8 µM [cytotoxic, full curve]	–
O=[N+]([O-])c1ccc(-c2cn(-c3ccccc3F)c(=S)[nH]2)cc1	inconclusive: 29.1 µM [rising, single point]	–

Whole records, quoted from the list:
COc1ccc(-c2nnc(SCC(=O)N3CCCc4ccccc43)o2)cc1OC is listed with Potency: inconclusive: 29.1 µM [cytotoxic, partial curve, poor fit]
c1csc(-c2nn3cnnc3c3ccccc23)c1 is listed with Potency: inconclusive: 18.4 µM [cytotoxic, single point]
O=C(CCCCn1c(=O)c2ccccc2n(CC(=O)Nc2ccc(F)cc2)c1=O)NCc1ccco1 is listed with Potency: inconclusive: 29.1 µM [cytotoxic, single point]
